Measured data: PubChem BioAssay AID1508597 (Cure First, 2020)
Test: 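Knock-downs altering ovarian cancer cell survival with or without PARP inhibitor rucaparib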 (primary screen). Cell system: human ovarian carcinoma lines grown from tumours: OCI-P5x (papillary serous) and OCI-C5x (clear cell). Reagents: siRNA pool against human genes, 1.25 pmol siRNA per well. Duration: 72 h or 96 h, depending on the cell culture. Challenge: rucaparib 20 µM (about IC30) or vehicle, present until read-out. Rucaparib or vehicle: Rucaparib. Cell line: OCI-C5x (clear cell). Detection: 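Luminescent ATP-based viability assay read 72 or 96 h after transfection, depending on culture, given as normalised percent viability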. Reading the numbers: viability, normalised: higher = more viable cells remaining. Active means: 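Active when normalised viability falls below 80 percent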. Meaning of the calls: active = viability under 80%; inactive = viability 80% or more.
Shown is a random part of the about 2,100 reagents, under one of the conditions tested. 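Calls flag viability under 80% in either arm, not effects specific to rucaparib; the reference for percent is not stated.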 Unmarked entries are inactive. Reagent sequences are not shown. The record does not give: the 100% reference.

PRDM15, technical replicate 1 scored viability, normalised (%) = 45.5 (active).
For PRDM15, technical replicate 2, the values are viability, normalised (%) = 46.4 (active).
PRDM15, technical replicate 3 showed viability, normalised (%) = 30.4 (active).
ENOSF1, technical replicate 1 gave viability, normalised (%) = 89.4.
For ENOSF1, technical replicate 2, the entry reads viability, normalised (%) = 75.3 (active).
ENOSF1, technical replicate 3 showed viability, normalised (%) = 97.8.
For DHX37, technical replicate 1, the values are viability, normalised (%) = 62.9 (active).
With DHX37, technical replicate 2, the entry reads viability, normalised (%) = 47.1 (active).
DHX37, technical replicate 3 gave viability, normalised (%) = 44.5 (active).
PHF11, technical replicate 1 showed viability, normalised (%) = 50.3 (active).
For PHF11, technical replicate 2, the entry reads viability, normalised (%) = 48.1 (active).
For PHF11, technical replicate 3, the entry reads viability, normalised (%) = 44.8 (active).

Looked up above:
Result for PHF11, technical replicate 3 under “viability, normalised (%)”: 44.8 (active)
Result of ENOSF1, technical replicate 2 under “viability, normalised (%)”: 75.3 (active)
